Measured values: the supplement of paper PMC11006884
Only a part is listed here, and it is no random draw.

Sequences of proteins named here, by UniProt entry; tags and fusion partners are left off. A change or cut given only in a name is not applied to a line headed by its entry.
UniProt Q13423: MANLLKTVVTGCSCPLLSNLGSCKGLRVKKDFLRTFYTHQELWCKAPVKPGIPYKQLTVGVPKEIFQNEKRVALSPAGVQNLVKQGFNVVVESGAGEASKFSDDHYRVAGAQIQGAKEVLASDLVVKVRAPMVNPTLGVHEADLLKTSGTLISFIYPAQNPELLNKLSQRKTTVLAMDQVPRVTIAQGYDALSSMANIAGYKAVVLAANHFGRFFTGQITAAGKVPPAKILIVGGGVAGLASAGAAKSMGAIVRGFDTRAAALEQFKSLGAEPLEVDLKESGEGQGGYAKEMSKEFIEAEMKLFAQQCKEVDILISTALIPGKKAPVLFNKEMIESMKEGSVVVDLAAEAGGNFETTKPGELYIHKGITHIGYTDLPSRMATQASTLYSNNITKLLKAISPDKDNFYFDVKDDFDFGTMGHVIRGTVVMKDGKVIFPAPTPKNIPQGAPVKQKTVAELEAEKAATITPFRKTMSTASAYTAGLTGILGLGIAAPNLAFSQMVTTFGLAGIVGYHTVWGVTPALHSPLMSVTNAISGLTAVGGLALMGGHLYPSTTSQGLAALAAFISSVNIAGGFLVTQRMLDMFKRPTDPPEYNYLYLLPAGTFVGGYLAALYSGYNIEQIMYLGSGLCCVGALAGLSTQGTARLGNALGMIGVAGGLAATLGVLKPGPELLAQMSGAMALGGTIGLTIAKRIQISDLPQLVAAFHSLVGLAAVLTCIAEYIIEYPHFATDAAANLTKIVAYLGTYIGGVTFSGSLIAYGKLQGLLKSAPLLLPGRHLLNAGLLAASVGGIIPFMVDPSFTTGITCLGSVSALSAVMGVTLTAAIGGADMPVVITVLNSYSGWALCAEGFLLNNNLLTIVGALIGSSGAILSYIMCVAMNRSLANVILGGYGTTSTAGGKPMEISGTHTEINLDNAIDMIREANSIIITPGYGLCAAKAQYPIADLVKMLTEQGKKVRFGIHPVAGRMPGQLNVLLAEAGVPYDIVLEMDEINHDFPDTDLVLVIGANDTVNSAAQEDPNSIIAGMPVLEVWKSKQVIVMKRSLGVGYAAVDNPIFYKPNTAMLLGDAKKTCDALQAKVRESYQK
UniProt Q12933: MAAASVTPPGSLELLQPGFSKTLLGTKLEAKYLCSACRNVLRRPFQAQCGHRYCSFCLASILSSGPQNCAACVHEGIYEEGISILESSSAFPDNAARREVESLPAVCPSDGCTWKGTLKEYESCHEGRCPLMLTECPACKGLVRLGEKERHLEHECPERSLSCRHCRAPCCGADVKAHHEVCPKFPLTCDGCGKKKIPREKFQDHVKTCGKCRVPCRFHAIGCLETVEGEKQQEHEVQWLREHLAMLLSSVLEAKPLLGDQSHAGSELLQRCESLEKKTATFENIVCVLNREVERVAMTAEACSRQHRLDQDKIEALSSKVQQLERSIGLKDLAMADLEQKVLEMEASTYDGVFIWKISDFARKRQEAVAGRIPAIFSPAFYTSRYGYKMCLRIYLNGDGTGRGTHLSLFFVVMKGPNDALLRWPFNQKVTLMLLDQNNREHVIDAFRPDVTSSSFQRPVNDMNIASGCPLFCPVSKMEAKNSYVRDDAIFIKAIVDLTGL
UniProt Q12905: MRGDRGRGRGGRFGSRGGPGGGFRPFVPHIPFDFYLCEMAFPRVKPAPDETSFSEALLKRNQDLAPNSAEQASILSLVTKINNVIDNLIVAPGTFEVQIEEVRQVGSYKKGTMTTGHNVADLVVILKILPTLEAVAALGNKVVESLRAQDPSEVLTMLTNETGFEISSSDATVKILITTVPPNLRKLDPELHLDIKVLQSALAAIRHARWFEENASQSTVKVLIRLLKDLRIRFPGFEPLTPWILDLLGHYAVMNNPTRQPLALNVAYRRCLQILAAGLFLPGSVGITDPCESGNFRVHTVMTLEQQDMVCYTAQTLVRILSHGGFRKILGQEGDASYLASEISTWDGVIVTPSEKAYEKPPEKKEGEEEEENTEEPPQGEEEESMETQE
UniProt Q12948: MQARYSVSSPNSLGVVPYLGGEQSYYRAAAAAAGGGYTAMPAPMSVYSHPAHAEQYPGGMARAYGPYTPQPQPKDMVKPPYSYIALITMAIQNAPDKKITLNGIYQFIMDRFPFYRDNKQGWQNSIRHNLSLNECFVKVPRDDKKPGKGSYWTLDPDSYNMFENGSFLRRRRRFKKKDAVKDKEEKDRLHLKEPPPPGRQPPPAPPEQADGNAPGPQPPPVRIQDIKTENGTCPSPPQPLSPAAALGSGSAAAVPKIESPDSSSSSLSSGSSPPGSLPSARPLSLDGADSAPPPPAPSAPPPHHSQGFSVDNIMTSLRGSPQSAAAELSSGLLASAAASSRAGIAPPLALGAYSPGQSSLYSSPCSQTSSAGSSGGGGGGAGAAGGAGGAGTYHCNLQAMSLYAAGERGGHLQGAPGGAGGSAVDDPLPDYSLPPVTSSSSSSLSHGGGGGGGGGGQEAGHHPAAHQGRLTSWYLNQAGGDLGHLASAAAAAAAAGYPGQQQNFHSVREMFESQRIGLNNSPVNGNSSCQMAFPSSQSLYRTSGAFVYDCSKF
UniProt Q12789: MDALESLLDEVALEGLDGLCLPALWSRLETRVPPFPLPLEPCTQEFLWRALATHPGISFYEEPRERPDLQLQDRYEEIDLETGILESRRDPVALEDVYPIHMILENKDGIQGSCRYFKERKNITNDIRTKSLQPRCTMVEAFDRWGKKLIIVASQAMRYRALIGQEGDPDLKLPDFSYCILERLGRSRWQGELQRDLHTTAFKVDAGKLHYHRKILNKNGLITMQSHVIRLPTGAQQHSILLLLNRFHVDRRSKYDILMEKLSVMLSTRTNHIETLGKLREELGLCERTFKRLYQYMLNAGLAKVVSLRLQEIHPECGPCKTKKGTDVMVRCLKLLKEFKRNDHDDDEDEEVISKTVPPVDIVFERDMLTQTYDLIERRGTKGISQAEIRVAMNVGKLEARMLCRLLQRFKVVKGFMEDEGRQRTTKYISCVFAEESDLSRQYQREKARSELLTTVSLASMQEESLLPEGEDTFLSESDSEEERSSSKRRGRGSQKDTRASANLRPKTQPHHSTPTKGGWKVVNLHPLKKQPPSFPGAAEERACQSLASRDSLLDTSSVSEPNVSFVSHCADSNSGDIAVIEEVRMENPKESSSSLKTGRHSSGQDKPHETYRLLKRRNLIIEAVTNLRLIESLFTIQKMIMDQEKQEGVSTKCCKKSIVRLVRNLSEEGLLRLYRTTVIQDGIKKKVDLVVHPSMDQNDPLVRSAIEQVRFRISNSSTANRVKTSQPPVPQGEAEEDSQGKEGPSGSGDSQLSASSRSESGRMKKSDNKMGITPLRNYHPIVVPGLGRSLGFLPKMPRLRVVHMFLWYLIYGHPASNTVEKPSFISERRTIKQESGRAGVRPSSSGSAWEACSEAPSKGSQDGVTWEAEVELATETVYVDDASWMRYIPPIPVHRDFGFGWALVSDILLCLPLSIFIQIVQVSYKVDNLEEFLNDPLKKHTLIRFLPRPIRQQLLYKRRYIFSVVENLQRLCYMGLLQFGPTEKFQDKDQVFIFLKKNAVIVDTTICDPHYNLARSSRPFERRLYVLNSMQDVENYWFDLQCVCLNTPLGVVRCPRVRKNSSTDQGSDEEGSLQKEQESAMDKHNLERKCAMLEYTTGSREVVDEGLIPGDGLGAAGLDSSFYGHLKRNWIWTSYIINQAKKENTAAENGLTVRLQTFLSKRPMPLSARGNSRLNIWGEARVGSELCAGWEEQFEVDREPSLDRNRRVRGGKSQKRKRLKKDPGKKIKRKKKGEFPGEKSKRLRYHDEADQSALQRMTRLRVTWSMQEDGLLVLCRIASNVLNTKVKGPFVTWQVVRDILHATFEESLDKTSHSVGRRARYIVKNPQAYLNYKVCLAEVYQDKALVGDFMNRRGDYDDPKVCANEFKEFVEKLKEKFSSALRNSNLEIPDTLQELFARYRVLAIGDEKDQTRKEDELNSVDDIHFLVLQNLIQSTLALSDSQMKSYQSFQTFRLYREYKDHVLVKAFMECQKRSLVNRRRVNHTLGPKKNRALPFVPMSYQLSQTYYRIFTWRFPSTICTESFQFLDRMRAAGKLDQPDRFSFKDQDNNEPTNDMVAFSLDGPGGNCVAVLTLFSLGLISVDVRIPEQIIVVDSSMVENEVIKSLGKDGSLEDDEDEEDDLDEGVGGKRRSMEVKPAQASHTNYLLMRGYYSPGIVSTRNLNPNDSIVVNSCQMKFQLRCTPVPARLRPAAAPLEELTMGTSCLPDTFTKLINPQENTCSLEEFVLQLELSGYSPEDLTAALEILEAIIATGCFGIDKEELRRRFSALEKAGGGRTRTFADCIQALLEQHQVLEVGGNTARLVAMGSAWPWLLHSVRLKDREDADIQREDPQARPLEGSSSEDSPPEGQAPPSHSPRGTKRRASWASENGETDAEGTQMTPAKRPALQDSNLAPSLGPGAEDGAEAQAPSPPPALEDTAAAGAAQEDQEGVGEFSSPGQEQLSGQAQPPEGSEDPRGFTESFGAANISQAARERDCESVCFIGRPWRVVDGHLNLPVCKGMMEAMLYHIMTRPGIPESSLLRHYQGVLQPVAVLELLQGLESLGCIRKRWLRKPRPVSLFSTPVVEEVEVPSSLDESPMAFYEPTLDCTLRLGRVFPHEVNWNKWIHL
UniProt Q05086: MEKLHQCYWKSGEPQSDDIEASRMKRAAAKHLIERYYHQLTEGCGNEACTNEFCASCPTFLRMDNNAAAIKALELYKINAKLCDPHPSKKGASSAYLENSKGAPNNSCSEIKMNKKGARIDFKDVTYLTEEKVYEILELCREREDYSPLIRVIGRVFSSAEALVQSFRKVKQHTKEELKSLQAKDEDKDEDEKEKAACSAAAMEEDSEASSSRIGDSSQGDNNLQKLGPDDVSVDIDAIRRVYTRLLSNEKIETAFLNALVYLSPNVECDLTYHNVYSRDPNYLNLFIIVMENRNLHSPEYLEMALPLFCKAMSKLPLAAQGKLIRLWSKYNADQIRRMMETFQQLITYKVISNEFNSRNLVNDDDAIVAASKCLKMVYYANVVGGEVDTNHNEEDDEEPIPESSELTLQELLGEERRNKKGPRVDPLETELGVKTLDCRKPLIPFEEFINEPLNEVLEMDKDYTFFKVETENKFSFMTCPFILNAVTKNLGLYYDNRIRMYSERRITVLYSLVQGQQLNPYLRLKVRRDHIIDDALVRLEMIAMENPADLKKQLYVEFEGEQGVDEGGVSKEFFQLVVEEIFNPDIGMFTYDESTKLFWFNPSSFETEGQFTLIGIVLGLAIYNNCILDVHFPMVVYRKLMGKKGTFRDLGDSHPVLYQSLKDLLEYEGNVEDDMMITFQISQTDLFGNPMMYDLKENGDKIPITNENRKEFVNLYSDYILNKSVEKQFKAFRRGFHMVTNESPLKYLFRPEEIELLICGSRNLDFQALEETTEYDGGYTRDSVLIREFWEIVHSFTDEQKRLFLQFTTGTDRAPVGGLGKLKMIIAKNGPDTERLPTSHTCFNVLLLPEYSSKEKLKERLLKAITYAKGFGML
UniProt Q13148, whole entry, looked up: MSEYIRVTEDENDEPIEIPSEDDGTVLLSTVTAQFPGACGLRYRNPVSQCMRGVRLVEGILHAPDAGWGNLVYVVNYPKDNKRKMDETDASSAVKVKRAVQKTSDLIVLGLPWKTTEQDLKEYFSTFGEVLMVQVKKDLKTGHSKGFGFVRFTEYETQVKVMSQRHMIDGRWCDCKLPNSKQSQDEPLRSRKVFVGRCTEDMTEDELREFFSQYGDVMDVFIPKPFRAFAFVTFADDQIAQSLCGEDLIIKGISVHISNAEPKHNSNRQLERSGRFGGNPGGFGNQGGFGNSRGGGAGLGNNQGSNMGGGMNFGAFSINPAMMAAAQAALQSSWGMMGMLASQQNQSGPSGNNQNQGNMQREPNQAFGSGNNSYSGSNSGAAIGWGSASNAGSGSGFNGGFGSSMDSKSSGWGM
UniProt Q13404: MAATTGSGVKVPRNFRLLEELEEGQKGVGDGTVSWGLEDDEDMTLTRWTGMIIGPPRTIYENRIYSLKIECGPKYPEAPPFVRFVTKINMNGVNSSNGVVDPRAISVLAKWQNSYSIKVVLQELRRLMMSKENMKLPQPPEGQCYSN
UniProt Q03426, whole entry: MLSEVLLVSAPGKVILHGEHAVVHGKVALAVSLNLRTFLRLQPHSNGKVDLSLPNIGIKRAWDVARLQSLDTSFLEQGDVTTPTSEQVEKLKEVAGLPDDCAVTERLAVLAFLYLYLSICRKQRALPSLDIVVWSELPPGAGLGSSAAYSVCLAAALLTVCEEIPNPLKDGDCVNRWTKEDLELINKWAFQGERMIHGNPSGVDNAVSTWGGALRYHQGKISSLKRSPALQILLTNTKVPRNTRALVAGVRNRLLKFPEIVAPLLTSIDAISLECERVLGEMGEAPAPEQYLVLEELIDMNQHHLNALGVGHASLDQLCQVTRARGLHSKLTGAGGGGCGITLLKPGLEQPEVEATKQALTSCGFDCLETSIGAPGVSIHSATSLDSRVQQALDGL

compound: COC(=O)C#Cc1ccccc1 [methyl 3-phenylpropiolate]; assay: log2 ratio of iodoacetamide-alkyne labeling of the cysteine site, DMSO over compound (competition); higher = stronger covalent engagement of the cysteine by the compound, active = 1 or more; conditions: 500 µM; treatment time 1 h; system: HEK293T cell lysate
Method in brief: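 The log2 competition ratio per cysteine is defined as mean reporter intensity in control channels over mean reporter intensity in compound channels. Lysate from HEK293T cells (2 mg/mL) received electrophile (500 µM) or vehicle for 1 h at ambient temperature, followed by iodoacetamide alkyne for 1 h. Samples were clicked to sCIP-TMT reagents, pooled, trypsin-digested overnight at 37 °C, streptavidin-enriched, acid-eluted and run on Orbitrap Eclipse LC-MS/MS with FAIMS, with quantification in FragPipe. Three replicates with duplicate channels were used, and any cysteine quantified in only one replicate was excluded.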

log2 ratio of iodoacetamide-alkyne labeling, inactive:
NNT C936 (UniProt Q13423) 0.364
TRAF2 C107 (UniProt Q12933) 0.213
PTPN11 C318 (UniProt Q06124) 0.735
UniProt Q12905_C271 0.137
UniProt Q13131_C185 0.795
EIF2B5 C196 (UniProt Q13144) 0.556
DHX9 C1029 (UniProt Q08211) 0.81
TRIM28 C124 (UniProt Q13263) 0.236
UniProt Q12948_C550 0.491
PTPN11 C104 (UniProt Q06124) -0.0651
GTF3C1 C1188 (UniProt Q12789) 0.302
TCOF1 C1298 (UniProt Q13428) 0.666
UBE3A C843 (UniProt Q05086) 0.347
TARDBP C39 (UniProt Q13148) 0.132
UBE2V1 C144 (UniProt Q13404) 0.136
DST C7524 (UniProt Q03001) 0.174
GTF3C1 C544 (UniProt Q12789) 0.77
KLC1 C114 (UniProt Q07866) 0.218
NSUN2 C93 (UniProt Q08J23) 0.0853
GTF3C1 C1091 (UniProt Q12789) 0.819
EIF4G1 C821 (UniProt Q04637) 0.105
UniProt Q12904_C161 0.0283
CEBPZ C374 (UniProt Q03701) 0.281
CHAF1A C207 (UniProt Q13111) 0.995
CHAF1A C181 (UniProt Q13111) -0.312
TRAF2 C182 (UniProt Q12933) -0.179
AHNAK C1900 (UniProt Q09666) 0.376
ROCK1 C1206 (UniProt Q13464) 0.46
PTK7 C911 (UniProt Q13308) 0.605
RPL18A C64 (UniProt Q02543) -0.0795
PPIG C310 (UniProt Q13427) 0.195
MVK C275 (UniProt Q03426) -0.134
EIF4G1 C1516 (UniProt Q04637) -0.147
GTF3C1 C42 (UniProt Q12789) 0.436
IFIT5 C476 (UniProt Q13325) 0.166
TARDBP C198 (UniProt Q13148) 0.069
UniProt Q12768_C21 -0.126
G3BP1 C73 (UniProt Q13283) 0.276

Quoted at random: two entries already listed
log2 ratio of iodoacetamide-alkyne labeling, inactive:
TRAF2 C107 (UniProt Q12933) 0.213
UniProt Q12768_C21 -0.126
